Laboratory results: PubChem BioAssay AID1224830 (NIAID, 2016)
This is a random part of about 18,000 reagents tested. In the full data, about 2,900 (16%) got an active call. 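Calls are made per well; low scores hint the gene aids the LPS response, high scores that it dampens it.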 Repeated entries: four replicate wells of each siRNA pool.

Purpose: 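Host factors that control LPS-induced TNF expression in human macrophages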 (primary screen)
Cells: human THP-1 monocytic leukaemia cells, TNF dual-luciferase reporter clone, PMA-differentiated to macrophage-like cells
Reagents: siRNA pool against human genes, 50 nM
Duration: LPS for 4 h, given about 3 days after siRNA transfection
Challenge: bacterial LPS (TLR4 ligand), 10 ng/ml
Measured: 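TNF firefly reporter luminescence divided by renilla, normalised to the plate median, then turned into a robust z-score for each replicate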
Direction: TNF reporter robust z-score: higher = stronger TNF reporter response to LPS
Hit rule: 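Each well counts as active if its z-score is over 2.8 or under -1.5; controls are left without a call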

The opening 7 entries, ahead of the listing:
| Gene | TNF reporter robust z-score | call |
| --- | --- | --- |
| SLC39A11 | -0.21 | inactive |
| SLC39A11 | 0.07 | inactive |
| SLC39A11 | -0.43 | inactive |
| SLC39A11 | 0.17 | inactive |
| LORICRIN (loricrin cornified envelope precursor protein) | -1.33 | inactive |
| LORICRIN (loricrin cornified envelope precursor protein) | -1 | inactive |
| LORICRIN (loricrin cornified envelope precursor protein) | -0.97 | inactive |

The list itself, from the first entry:
| Gene | TNF reporter robust z-score | call |
| --- | --- | --- |
| SLC39A11 | -0.21 | inactive |
| SLC39A11 | 0.07 | inactive |
| SLC39A11 | -0.43 | inactive |
| SLC39A11 | 0.17 | inactive |
| LORICRIN (loricrin cornified envelope precursor protein) | -1.33 | inactive |
| LORICRIN (loricrin cornified envelope precursor protein) | -1 | inactive |
| LORICRIN (loricrin cornified envelope precursor protein) | -0.97 | inactive |
| LORICRIN (loricrin cornified envelope precursor protein) | 0 | inactive |
| LSM12 (LSM12 homolog) | 1.94 | inactive |
| LSM12 (LSM12 homolog) | 2.3 | inactive |
| LSM12 (LSM12 homolog) | 2.06 | inactive |
| LSM12 (LSM12 homolog) | 1.58 | inactive |
| TMT1A (thiol methyltransferase 1A) | -0.94 | inactive |
| TMT1A (thiol methyltransferase 1A) | 1.26 | inactive |
| TMT1A (thiol methyltransferase 1A) | -1.15 | inactive |
| TMT1A (thiol methyltransferase 1A) | -0.81 | inactive |
| EIF3E (eukaryotic translation initiation factor 3 subunit E) | -0.86 | inactive |
| EIF3E (eukaryotic translation initiation factor 3 subunit E) | -0.16 | inactive |
| EIF3E (eukaryotic translation initiation factor 3 subunit E) | -1.1 | inactive |
| EIF3E (eukaryotic translation initiation factor 3 subunit E) | -0.57 | inactive |
| MPV17 (mitochondrial inner membrane protein MPV17) | 4.58 | active |
| MPV17 (mitochondrial inner membrane protein MPV17) | 7.09 | active |
| MPV17 (mitochondrial inner membrane protein MPV17) | 4.47 | active |
| MPV17 (mitochondrial inner membrane protein MPV17) | 3.51 | active |
| NT5C2 (5'-nucleotidase, cytosolic II) | -0.52 | inactive |
| NT5C2 (5'-nucleotidase, cytosolic II) | -0.62 | inactive |
| NT5C2 (5'-nucleotidase, cytosolic II) | -0.77 | inactive |
| NT5C2 (5'-nucleotidase, cytosolic II) | -0.42 | inactive |
| TPRA1 (transmembrane protein adipocyte associated 1) | 0.73 | inactive |
| TPRA1 (transmembrane protein adipocyte associated 1) | 1.16 | inactive |
| TPRA1 (transmembrane protein adipocyte associated 1) | 0.74 | inactive |
| TPRA1 (transmembrane protein adipocyte associated 1) | 2.28 | inactive |
| ARHGAP35 (Rho GTPase activating protein 35) | -0.92 | inactive |
| ARHGAP35 (Rho GTPase activating protein 35) | -0.73 | inactive |
| ARHGAP35 (Rho GTPase activating protein 35) | -0.77 | inactive |
| ARHGAP35 (Rho GTPase activating protein 35) | -1.33 | inactive |
| AGAP1 (ArfGAP with GTPase domain, ankyrin repeat and PH domain 1) | -0.36 | inactive |
| AGAP1 (ArfGAP with GTPase domain, ankyrin repeat and PH domain 1) | 0.92 | inactive |
| AGAP1 (ArfGAP with GTPase domain, ankyrin repeat and PH domain 1) | 0.03 | inactive |
| AGAP1 (ArfGAP with GTPase domain, ankyrin repeat and PH domain 1) | 0.72 | inactive |
| IGFL3 (IGF like family member 3) | -0.96 | inactive |
| IGFL3 (IGF like family member 3) | -1.43 | inactive |
| IGFL3 (IGF like family member 3) | -1.07 | inactive |
| IGFL3 (IGF like family member 3) | -1.44 | inactive |
| ZNF233 (zinc finger protein 233) | 0.45 | inactive |
| ZNF233 (zinc finger protein 233) | 0.68 | inactive |
| ZNF233 (zinc finger protein 233) | 0.89 | inactive |
| ZNF233 (zinc finger protein 233) | 2.36 | inactive |
| SCHIP1 (schwannomin interacting protein 1) | -0.75 | inactive |
| SCHIP1 (schwannomin interacting protein 1) | -0.23 | inactive |
| SCHIP1 (schwannomin interacting protein 1) | -1.38 | inactive |
| SCHIP1 (schwannomin interacting protein 1) | -0.69 | inactive |
| DNA2 (DNA replication helicase/nuclease 2) | -1.53 | active |
| DNA2 (DNA replication helicase/nuclease 2) | -0.91 | inactive |
| DNA2 (DNA replication helicase/nuclease 2) | -1.12 | inactive |
| DNA2 (DNA replication helicase/nuclease 2) | -0.35 | inactive |
| LIPF (lipase F, gastric type) | 0.31 | inactive |
| LIPF (lipase F, gastric type) | -0.27 | inactive |
| LIPF (lipase F, gastric type) | -0.08 | inactive |
| LIPF (lipase F, gastric type) | 2.68 | inactive |
| SYT16 (synaptotagmin 16) | -0.76 | inactive |
| SYT16 (synaptotagmin 16) | -0.85 | inactive |
| SYT16 (synaptotagmin 16) | -0.7 | inactive |
| SYT16 (synaptotagmin 16) | -0.5 | inactive |
| NIN (ninein) | 0.69 | inactive |
| NIN (ninein) | -0.15 | inactive |
| NIN (ninein) | 1.85 | inactive |
| NIN (ninein) | 0.99 | inactive |
| SLX4IP (SLX4 interacting protein) | -1.01 | inactive |
| SLX4IP (SLX4 interacting protein) | -1.02 | inactive |
| SLX4IP (SLX4 interacting protein) | -0.58 | inactive |
| SLX4IP (SLX4 interacting protein) | -0.52 | inactive |
| SPATA4 (spermatogenesis associated 4) | -1.57 | active |
| SPATA4 (spermatogenesis associated 4) | -0.68 | inactive |
| SPATA4 (spermatogenesis associated 4) | -1.1 | inactive |
| SPATA4 (spermatogenesis associated 4) | -0.11 | inactive |
